# Experimental data from the supplement of paper PMC12819154, “High-throughput peptide-centric local stability assay extends protein–ligand identification to membrane proteins, tissues and bacteria” (Nature Structural & Molecular Biology, 2025).
# Amino acid sequences for entries named in this document (tags omitted). A change or cut given only in a name is not applied to a line headed by its entry.
# UniProt Q9R0Y5: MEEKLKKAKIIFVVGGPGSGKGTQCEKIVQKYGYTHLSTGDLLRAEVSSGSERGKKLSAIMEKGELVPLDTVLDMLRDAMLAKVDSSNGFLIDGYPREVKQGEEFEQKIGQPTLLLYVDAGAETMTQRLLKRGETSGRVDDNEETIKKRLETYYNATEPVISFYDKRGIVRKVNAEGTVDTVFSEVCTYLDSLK
# UniProt Q9QXW0: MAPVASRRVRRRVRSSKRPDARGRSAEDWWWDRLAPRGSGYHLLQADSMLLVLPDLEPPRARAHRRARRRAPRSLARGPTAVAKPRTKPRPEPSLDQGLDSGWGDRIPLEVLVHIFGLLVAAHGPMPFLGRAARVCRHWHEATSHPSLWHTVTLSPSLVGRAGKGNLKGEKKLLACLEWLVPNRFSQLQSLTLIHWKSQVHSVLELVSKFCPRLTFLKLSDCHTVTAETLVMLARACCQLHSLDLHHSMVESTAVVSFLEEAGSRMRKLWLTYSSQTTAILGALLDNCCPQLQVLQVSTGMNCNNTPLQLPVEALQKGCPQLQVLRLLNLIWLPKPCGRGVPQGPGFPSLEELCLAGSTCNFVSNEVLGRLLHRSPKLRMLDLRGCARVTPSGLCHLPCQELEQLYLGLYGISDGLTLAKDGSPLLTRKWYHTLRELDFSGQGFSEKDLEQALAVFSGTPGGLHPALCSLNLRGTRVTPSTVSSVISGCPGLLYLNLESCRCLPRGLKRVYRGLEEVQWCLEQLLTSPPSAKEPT
# UniProt Q9QZ15: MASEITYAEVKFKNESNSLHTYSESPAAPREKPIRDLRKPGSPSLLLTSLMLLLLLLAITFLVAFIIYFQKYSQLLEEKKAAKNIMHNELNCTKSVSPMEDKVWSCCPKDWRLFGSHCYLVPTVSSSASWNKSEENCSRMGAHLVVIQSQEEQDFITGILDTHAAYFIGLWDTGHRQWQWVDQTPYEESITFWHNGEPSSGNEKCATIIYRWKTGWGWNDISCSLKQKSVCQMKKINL
# UniProt Q9WUB0: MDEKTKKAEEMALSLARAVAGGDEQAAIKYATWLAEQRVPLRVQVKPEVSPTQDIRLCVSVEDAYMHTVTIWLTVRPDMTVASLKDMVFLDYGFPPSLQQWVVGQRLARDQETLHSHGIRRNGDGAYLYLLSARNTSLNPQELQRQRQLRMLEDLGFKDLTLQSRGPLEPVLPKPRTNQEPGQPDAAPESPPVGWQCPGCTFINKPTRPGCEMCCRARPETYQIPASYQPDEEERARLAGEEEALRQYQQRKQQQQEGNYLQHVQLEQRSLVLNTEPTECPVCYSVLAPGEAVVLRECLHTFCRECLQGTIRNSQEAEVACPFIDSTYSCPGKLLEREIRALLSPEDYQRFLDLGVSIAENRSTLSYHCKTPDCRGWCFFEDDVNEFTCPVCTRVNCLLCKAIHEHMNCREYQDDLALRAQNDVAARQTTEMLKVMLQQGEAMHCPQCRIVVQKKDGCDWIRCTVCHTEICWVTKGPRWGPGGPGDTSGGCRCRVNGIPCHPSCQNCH
# UniProt Q9R1Q6: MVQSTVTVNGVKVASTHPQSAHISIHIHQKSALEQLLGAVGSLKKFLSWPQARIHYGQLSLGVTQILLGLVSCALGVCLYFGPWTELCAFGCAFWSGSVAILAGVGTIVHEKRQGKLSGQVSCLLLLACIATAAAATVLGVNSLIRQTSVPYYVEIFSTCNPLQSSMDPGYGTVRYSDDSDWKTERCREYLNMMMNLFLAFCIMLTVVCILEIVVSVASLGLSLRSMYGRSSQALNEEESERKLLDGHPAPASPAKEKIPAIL
# UniProt Q9R088: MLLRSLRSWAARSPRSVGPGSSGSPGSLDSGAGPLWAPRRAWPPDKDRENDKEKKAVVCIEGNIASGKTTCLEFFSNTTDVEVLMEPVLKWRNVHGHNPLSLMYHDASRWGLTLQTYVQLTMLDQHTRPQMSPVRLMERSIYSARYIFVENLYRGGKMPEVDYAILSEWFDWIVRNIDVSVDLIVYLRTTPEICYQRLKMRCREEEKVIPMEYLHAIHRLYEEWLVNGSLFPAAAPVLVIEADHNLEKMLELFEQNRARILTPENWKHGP
# UniProt Q9R123: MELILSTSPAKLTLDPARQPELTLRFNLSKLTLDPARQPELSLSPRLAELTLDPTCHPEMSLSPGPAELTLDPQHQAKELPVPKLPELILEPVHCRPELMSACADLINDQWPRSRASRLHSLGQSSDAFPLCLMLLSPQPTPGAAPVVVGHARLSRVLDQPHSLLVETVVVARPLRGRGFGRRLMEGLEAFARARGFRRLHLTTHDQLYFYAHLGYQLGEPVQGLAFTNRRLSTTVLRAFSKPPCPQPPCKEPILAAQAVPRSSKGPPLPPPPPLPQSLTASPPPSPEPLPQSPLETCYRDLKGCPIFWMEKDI
# UniProt Q9WV66: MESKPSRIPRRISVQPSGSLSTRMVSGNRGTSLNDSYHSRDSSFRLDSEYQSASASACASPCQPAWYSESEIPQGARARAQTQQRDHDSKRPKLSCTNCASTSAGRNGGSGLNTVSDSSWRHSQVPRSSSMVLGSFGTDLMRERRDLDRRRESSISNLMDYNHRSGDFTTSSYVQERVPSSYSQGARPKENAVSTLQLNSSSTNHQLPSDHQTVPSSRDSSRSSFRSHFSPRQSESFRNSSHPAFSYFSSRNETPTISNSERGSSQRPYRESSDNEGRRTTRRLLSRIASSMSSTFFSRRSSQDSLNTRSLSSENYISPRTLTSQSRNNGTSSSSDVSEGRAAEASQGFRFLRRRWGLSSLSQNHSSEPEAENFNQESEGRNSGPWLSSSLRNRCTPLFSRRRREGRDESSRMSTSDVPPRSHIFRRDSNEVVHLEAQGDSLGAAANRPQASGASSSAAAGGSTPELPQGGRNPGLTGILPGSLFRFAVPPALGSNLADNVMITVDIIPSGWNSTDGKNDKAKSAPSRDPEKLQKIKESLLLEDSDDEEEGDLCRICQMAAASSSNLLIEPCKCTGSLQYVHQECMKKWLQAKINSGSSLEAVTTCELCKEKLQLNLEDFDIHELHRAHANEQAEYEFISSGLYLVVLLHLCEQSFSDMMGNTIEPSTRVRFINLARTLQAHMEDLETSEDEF
# UniProt Q9QZS2: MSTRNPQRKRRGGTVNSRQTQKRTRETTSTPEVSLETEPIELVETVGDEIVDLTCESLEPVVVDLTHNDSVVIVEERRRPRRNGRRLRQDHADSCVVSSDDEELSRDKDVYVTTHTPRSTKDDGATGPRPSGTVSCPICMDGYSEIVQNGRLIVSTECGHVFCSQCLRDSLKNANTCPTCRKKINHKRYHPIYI
# UniProt Q9R194: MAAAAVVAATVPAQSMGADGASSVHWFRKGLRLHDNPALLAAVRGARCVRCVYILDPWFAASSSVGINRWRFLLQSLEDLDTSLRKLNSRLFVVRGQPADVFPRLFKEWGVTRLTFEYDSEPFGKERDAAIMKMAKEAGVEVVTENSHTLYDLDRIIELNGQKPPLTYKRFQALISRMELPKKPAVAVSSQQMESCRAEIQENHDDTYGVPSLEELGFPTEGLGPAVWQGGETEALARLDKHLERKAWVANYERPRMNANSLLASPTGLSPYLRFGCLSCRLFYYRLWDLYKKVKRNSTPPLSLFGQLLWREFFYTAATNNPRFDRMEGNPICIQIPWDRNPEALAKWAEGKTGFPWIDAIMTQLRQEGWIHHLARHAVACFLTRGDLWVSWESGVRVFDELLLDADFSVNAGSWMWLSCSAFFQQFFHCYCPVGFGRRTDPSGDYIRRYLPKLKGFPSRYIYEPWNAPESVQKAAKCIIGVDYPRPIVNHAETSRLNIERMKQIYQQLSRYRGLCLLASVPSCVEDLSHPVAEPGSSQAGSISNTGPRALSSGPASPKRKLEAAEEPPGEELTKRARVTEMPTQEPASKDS
# UniProt Q9R0Q1: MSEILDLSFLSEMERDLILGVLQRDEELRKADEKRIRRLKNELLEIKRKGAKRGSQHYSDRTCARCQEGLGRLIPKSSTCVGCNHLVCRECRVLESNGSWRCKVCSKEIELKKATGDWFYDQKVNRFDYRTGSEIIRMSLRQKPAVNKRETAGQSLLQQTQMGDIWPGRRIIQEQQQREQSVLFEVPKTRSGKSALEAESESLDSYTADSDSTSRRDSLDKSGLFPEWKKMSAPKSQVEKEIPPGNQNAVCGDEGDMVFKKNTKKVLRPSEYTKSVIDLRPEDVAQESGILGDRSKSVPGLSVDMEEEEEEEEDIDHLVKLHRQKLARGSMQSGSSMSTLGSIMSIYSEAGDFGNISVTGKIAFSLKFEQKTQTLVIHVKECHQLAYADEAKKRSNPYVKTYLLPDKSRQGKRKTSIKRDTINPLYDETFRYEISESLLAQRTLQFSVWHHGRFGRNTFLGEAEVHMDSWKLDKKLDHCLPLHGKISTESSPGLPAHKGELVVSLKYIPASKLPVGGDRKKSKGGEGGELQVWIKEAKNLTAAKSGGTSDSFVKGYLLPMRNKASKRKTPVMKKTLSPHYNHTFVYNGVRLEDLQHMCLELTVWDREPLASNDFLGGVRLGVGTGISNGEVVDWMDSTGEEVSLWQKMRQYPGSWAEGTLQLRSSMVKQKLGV
# UniProt Q9QYT7: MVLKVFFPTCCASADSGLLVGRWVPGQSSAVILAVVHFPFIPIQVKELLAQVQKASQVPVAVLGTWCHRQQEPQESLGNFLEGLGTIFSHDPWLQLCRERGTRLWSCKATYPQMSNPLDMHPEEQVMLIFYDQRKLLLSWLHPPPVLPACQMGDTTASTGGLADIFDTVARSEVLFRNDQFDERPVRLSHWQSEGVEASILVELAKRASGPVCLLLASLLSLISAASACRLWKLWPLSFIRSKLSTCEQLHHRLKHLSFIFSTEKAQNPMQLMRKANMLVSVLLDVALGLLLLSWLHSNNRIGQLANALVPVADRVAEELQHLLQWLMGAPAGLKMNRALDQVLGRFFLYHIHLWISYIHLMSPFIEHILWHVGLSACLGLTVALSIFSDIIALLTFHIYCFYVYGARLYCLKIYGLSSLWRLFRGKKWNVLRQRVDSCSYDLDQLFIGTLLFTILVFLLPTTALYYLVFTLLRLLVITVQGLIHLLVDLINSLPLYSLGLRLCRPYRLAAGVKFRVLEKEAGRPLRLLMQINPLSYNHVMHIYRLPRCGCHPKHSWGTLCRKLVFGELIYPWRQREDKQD
# UniProt Q9WTU0: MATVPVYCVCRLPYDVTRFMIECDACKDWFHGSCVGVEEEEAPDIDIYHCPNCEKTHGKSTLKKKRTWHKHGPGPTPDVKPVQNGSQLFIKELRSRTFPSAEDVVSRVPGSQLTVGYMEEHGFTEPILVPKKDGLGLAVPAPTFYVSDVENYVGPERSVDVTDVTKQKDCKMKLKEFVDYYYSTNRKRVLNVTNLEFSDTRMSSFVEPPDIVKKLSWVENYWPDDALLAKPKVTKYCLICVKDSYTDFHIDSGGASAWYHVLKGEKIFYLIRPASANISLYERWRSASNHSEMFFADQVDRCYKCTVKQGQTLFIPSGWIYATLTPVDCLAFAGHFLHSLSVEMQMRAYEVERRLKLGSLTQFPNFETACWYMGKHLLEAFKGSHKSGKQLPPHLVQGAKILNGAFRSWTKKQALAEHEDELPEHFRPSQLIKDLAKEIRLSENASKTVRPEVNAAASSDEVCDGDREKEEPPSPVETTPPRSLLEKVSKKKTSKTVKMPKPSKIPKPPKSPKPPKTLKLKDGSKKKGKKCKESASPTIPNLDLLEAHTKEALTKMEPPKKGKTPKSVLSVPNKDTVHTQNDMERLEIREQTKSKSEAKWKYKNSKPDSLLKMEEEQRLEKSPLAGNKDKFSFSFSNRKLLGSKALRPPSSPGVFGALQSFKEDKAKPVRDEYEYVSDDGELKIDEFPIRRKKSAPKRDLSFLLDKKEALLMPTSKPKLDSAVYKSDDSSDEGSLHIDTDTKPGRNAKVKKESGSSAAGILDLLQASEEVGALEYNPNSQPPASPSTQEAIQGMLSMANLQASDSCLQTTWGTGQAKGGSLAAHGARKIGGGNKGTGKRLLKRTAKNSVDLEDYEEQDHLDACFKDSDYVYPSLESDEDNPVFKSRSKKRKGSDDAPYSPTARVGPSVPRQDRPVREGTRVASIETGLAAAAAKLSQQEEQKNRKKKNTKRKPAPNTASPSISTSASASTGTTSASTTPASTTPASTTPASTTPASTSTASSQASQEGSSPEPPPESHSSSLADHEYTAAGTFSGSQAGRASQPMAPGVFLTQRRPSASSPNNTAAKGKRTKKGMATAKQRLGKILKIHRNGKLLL
# UniProt Q9WV69: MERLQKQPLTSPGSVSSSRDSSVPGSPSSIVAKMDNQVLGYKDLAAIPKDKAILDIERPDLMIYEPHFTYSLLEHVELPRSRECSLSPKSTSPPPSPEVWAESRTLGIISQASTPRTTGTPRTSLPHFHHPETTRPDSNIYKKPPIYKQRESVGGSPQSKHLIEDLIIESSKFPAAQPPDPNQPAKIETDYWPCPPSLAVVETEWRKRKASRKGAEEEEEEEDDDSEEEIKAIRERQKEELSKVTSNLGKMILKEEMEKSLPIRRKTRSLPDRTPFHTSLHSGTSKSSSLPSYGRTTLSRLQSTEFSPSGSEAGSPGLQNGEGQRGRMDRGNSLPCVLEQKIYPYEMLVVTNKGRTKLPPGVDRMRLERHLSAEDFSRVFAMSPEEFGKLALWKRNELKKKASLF
# The other results are listed elsewhere or left out. Small differences around the control level are noise.
# Compound: CN[C@@H]1C[C@H]2O[C@@](C)([C@@H]1OC)n1c3ccccc3c3c4c(c5c6ccccc6n2c5c31)C(=O)NC4 [staurosporine]
# Assay: log2 fold change of tryptic peptide abundance, ligand vs vehicle (limited proteolysis) (log2 ratio); higher = more trypsin-susceptible (destabilized)
# Conditions: ligand concentration: 20 uM; sample: mouse liver crude lysate; replicate design: treated separately
row,Target,log2 fold change
1,"UniProt Q9R0Y5 (peptide sequence: RGETSGRVDDNEETIK, peptide start residue: 132)",0.518
2,"UniProt Q9WUP4 (peptide sequence: STFVSYPK, peptide start residue: 313)",-0.148
3,"UniProt Q9QZ73 (peptide sequence: QFMIFTQSSEK, peptide start residue: 14)",0.0437
4,"UniProt Q9R059 (peptide sequence: TLTQGGVTYR, peptide start residue: 168)",-0.115
5,"UniProt Q9QZN4 (peptide sequence: TLPEETVVIGRR, peptide start residue: 261)",0.0769
6,"UniProt Q9R0X4 (peptide sequence: IFGGFLMR, peptide start residue: 310)",0.261
7,"UniProt Q9R0M6 (peptide sequence: SEHLIQTDTVNLHR, peptide start residue: 179)",0.0454
8,"UniProt Q9R1Q8 (peptide sequence: ANRGPSYGLSR, peptide start residue: 2)",0.0365
9,"UniProt Q9QXW0 (peptide sequence: SAEDWWWDR, peptide start residue: 25)",0.213
10,"UniProt Q9R269 (peptide sequence: NITTIDSGTHLNSR, peptide start residue: 1597)",-0.264
11,"UniProt Q9WV89 (peptide sequence: IHLAEAAQR, peptide start residue: 357)",-0.0602
12,"UniProt Q9QZ15 (peptide sequence: FKNESNSLHTYSESPAAPR, peptide start residue: 12)",-0.142
13,"UniProt Q9WUB0 (peptide sequence: AVAGGDEQAAIK, peptide start residue: 18)",-0.299
14,"UniProt Q9R1Q6 (peptide sequence: KLLDGHPAPASPAKEK, peptide start residue: 243)",-0.528
15,"UniProt Q9R088 (peptide sequence: ILTPENWK, peptide start residue: 260)",-0.1
16,"UniProt Q9QZ23 (peptide sequence: FIPGKPVLETR, peptide start residue: 72)",0.184
17,"UniProt Q9R190 (peptide sequence: TPTQLEGAAR, peptide start residue: 406)",0.42
18,"UniProt Q9QXK2 (peptide sequence: HQEFVHMYNAQCDALHPK, peptide start residue: 278)",-0.306
19,"UniProt Q9QXX8 (peptide sequence: SKWENQR, peptide start residue: 409)",-0.441
20,"UniProt Q9R226 (peptide sequence: EIEKFQK, peptide start residue: 30)",0.848

# An excerpt of these results, with bars between the fields:
row | Target | log2 fold change
10 | UniProt Q9R269 (peptide sequence: NITTIDSGTHLNSR, peptide start residue: 1597) | -0.264
11 | UniProt Q9WV89 (peptide sequence: IHLAEAAQR, peptide start residue: 357) | -0.0602

# Next part:

row,Target,log2 fold change
1,"UniProt Q9R1T4 (peptide sequence: EAEKELHEKFDR, peptide start residue: 359)",0.432
2,"UniProt Q9R045 (peptide sequence: VHKQELELLNNELLK, peptide start residue: 84)",-0.269
3,"UniProt Q9WV06 (peptide sequence: LAQEEETEK, peptide start residue: 18)",-0.505
4,"UniProt Q9QYI3 (peptide sequence: ALEFAPACHR, peptide start residue: 168)",0.348
5,"UniProt Q9R123 (peptide sequence: DLKGCPIFWMEKDI, peptide start residue: 301)",-0.787
6,"UniProt Q9QYH6 (peptide sequence: IPFTFWAR, peptide start residue: 727)",-0.179
7,"UniProt Q9WTP6 (peptide sequence: EPMKDDITGEPLIRR, peptide start residue: 161)",0.551
8,"UniProt Q9WUA6 (peptide sequence: RPHFPQFSYSASGRE, peptide start residue: 465)",0.0142
9,"UniProt Q9WV66 (peptide sequence: GTSLNDSYHSR, peptide start residue: 30)",-0.175
10,"UniProt Q9WTR5 (peptide sequence: INENTGSVSVTR, peptide start residue: 190)",0.296
11,"UniProt Q9QZS2 (peptide sequence: DKDVYVTTHTPR, peptide start residue: 107)",0.0879
12,"UniProt Q9R194 (peptide sequence: LHDNPALLAAVR, peptide start residue: 33)",-0.353
13,"UniProt Q9R0Q1 (peptide sequence: SSTCVGCNHLVCRECR, peptide start residue: 77)",0.231
14,"UniProt Q9QYT7 (peptide sequence: AQNPMQLMRK, peptide start residue: 266)",0.126
15,"UniProt Q9R049 (peptide sequence: VVGNMEAR, peptide start residue: 318)",0.132
16,"UniProt Q9WTU0 (peptide sequence: GSDDAPYSPTAR, peptide start residue: 892)",0.413
17,"UniProt Q9QY76 (peptide sequence: AKVEQVLSLEPQHELK, peptide start residue: 2)",-0.342
18,"UniProt Q9QY30 (peptide sequence: IDFIDCK, peptide start residue: 1078)",-0.67
19,"UniProt Q9WV69 (peptide sequence: TSLPHFHHPETTRPDSNIYK, peptide start residue: 123)",-0.205
20,"UniProt Q9QXV0 (peptide sequence: GEAAGAVQELAR, peptide start residue: 66)",-0.371
